Here are results for 25 molecules from PubChem BioAssay AID248 (DTP/NCI, 2004).

The list is a part of this screen's results and no random one: it is rich in T/C values a quarter to a half above the control, in often repeated tests (any T/C) and in doses without a T/C. Further doses and runs are listed elsewhere. T/C: endpoint of the treated group in % of that of the vehicle group. Some entries give survivors of the animals treated and no T/C: the source holds a T/C of zero for them, seemingly a mark for toxic or unscored doses. Some survivor counts are full or nearly so, which does not show that the dose was tolerated: the source hardly ever lists a survival T/C far under the control, and the zero likely stands for such cases as well. Counts of survivors are from the toxicity check (mostly the fifth day) where no day follows; animals may have died later. Schedules are NCI's codes, read here as Q, the interval in days (D) or hours (H), X, the number of doses. Some entries hold several experiments; their values stand side by side, smallest first. Some schedules carry Z or #; the key to these is not given. Where survival is the endpoint, this PubChem deposit counts one and a half times the control or more as active, and values a quarter to a half above the control carry no call in these data; other NCI protocols may use other cut-offs. Some T/C values are followed by the survivors on the day toxicity was checked, most often the fifth; where none is given, no animal had died by that day.

The subject of the assay is L1210 leukemia ip in BDF1 mice, survival T/C. The assay is described as follows: NCI In Vivo Anticancer Drug Screen. Data for tumor model L1210 Leukemia (intraperitoneal) in B6D2F1 (BDF1) mice. The conditions noted are these: higher T/C = longer survival.
Setting [1] is: T/C endpoint: mean survival time, dose: 100.0 mg/kg/injection, schedule: Q04DX003 (ip), vehicle: Klucel (hydroxypropylcellulose) (HPC).
Where [2] appears, read: T/C endpoint: mean survival time, dose: 200.0 mg/kg/injection, schedule: Q04DX003 (ip), vehicle: Klucel (hydroxypropylcellulose) (HPC).
The mark [3] stands for this setting: T/C endpoint: mean survival time, dose: 400.0 mg/kg/injection, schedule: Q04DX003 (ip), vehicle: Klucel (hydroxypropylcellulose) (HPC).
Setting [4] is: T/C endpoint: mean survival time, dose: 25.0 mg/kg/injection, schedule: Q01DX009 (ip), vehicle: saline with Tween-80.
The mark [5] stands for this setting: T/C endpoint: mean survival time, dose: 50.0 mg/kg/injection, schedule: Q01DX009 (ip), vehicle: saline with Tween-80.
[6] abbreviates: T/C endpoint: mean survival time, dose: 100.0 mg/kg/injection, schedule: Q01DX009 (ip), vehicle: saline with Tween-80.
Setting [7] is: T/C endpoint: mean survival time, dose: 100.0 mg/kg/injection, schedule: Q04DX002 (ip), vehicle: saline with Tween-80.
The mark [8] stands for this setting: T/C endpoint: mean survival time, dose: 200.0 mg/kg/injection, schedule: Q04DX002 (ip), vehicle: saline with Tween-80.
Where [9] appears, read: T/C endpoint: mean survival time, dose: 400.0 mg/kg/injection, schedule: Q04DX002 (ip), vehicle: saline with Tween-80.
Where [10] appears, read: T/C endpoint: mean survival time, dose: 400.0 mg/kg/injection, schedule: Q04DX002 (ip), vehicle: Klucel (hydroxypropylcellulose) (HPC).
The mark [11] stands for this setting: T/C endpoint: mean survival time, dose: 400.0 mg/kg/injection, schedule: Q04DX003 (ip), vehicle: saline.
The mark [12] stands for this setting: T/C endpoint: mean survival time, dose: 400.0 mg/kg/injection, schedule: Q01DX001 (ip), vehicle: other.

Take `OC(CN1CC1)c1ccccc1` (stereo unspecified): the survivor count is 5 of 6 (T/C endpoint: mean survival time, dose: 80.0 mg/kg/injection, schedule: Q01DX009 (ip), vehicle: Klucel (hydroxypropylcellulose) (HPC)); 5 of 6 under setting [1]; 2 of 6 under setting [2]; 0 of 6 under setting [3].
Turning to `Cc1ccc(C(C)C)c(OCC2C(=O)C3CCN2CC3)c1` (stereo unspecified), the survivor count under setting [1] is listed as 0 of 6, the survivor count under setting [2] is 0 of 6 and the survivor count under setting [3] was 0 of 6.
Regarding `Cc1ncc(C(=O)c2ccccc2)n1Cc1ccccc1`, the T/C reads like this: under setting [4], 94 and 110 % of control; under setting [5], 104 and 118 % of control; under setting [6], 96, 100, 107 % of control; under setting [7], 88, 92, 105, 113 % of control; under setting [8], 96, 100, 101 % of control; under setting [9], 88, 92, 96, 97 % of control. In addition, the survivor count reads like this: under setting [4], 3 of 3 and 6 of 6; under setting [5], 3 of 3 and 6 of 6; under setting [6], 3 of 3 and 6 of 6; under setting [8], 3 of 3.
On to `Cc1cc(Cl)c(Cl)cc1NC(=O)c1ccc(Cl)c(Cl)c1`, for which the survivor count (T/C endpoint: mean survival time, dose: 200.0 mg/kg/injection, schedule: Q01DX009 (ip), vehicle: saline with Tween-80) was 6 of 6.
On to `O=S(=O)(O)c1ccc(CCCCCCCCl)cc1`, for which the survivor count under setting [10] is given as 1 of 3.
On to `NCCCCCCNC(=O)CCCCC(=O)NCCCCCCN`, for which the survivor count was 5 of 6 (T/C endpoint: mean survival time, dose: 128.0 mg/kg/injection, schedule: Q01DX Z (ip), vehicle: saline) and 0 of 6 (T/C endpoint: mean survival time, dose: 256.0 mg/kg/injection, schedule: Q01DX Z (ip), vehicle: saline).
In the case of `Cc1ccccc1SC(=O)Nc1cc([N+](=O)[O-])ccc1Cl`, for the setting “T/C endpoint: mean survival time, dose: 100.0 mg/kg/injection, schedule: Q04DX003 (ip), vehicle: carboxymethylcellulose (CMC)”, the survivor count is listed as 3 of 3.
Consider `COc1ccc(/C=C(\CCCOC(C)=O)[N+](=O)[O-])cc1OC`, for which the survivor count (T/C endpoint: mean survival time, dose: 400.0 mg/kg/injection, schedule: Q01DX001 (ip), vehicle: carboxymethylcellulose (CMC)) is 1 of 4.
For the molecule `Cc1ccc(NC(=O)c2cccc(C(=O)Nc3ccc(C)cc3C)c2)c(C)c1`, the survivor count is, setting by setting: (T/C endpoint: mean survival time, dose: 100.0 mg/kg/injection, schedule: Q04DX003 (ip), vehicle: saline with Tween-80) 6 of 6; (T/C endpoint: mean survival time, dose: 400.0 mg/kg/injection, schedule: Q04DX003 (ip), vehicle: saline with Tween-80) 6 of 6.
Turning to `COc1cccc(NC(=S)C(C#N)C(=O)Nc2cccc(C(F)(F)F)c2)c1` (stereo unspecified), the survivor count by setting is: (T/C endpoint: mean survival time, dose: 200.0 mg/kg/injection, schedule: Q04DX002 (ip), vehicle: gum acacia) 0 of 3; (T/C endpoint: mean survival time, dose: 400.0 mg/kg/injection, schedule: Q04DX002 (ip), vehicle: gum acacia) 0 of 3.
Consider `N#CCCC(C#N)(c1cccnc1)N1CCOCC1` (stereo unspecified), for which the survivor count under setting [7] is recorded as 0 of 3, the survivor count under setting [8] is listed as 0 of 3 and the survivor count under setting [9] is 0 of 3.
Take `CCOC(=O)N1c2ccccc2C=CC1/C(N)=N/O` (stereo unspecified): the survivor count by setting is: (T/C endpoint: mean survival time, dose: 200.0 mg/kg/injection, schedule: Q01DX009 (ip), vehicle: Klucel (hydroxypropylcellulose) (HPC)) 2 of 6; under setting [3], 2 of 6.
For `N#CC1(c2ccccc2)OC1(c1ccccc1)c1ccccc1` (stereo unspecified), the survivor count under setting [10] is on record as 3 of 3.
Turning to `Nc1ccc(OC(=O)Nc2ccc(O)cc2)cc1`, the survivor count (T/C endpoint: mean survival time, dose: 120.0 mg/kg/injection, schedule: Q01DX Z (ip), vehicle: saline) was 6 of 6.
Consider `O=C1C=CC(=O)N1CN1CCOCC1` (tested in a mixture with another compound), for which, for the setting “T/C endpoint: mean survival time, dose: 25.0 mg/kg/injection, schedule: Q01DX009 (ip), vehicle: saline”, the survivor count is recorded as 3 of 3.
In the case of `O=C(NNC(=O)OCc1ccccc1)OCc1ccccc1`, under “T/C endpoint: mean survival time, dose: 400.0 mg/kg/injection, schedule: Q01DX009 (ip), vehicle: Klucel (hydroxypropylcellulose) (HPC)”, the survivor count is given as 2 of 6.
On to `CC1(C)N=C(N)N=C(N)N1c1ccc(OCC(=O)N2CCOCC2)c(Cl)c1`, for which the survivor count (T/C endpoint: mean survival time, dose: 200.0 mg/kg/injection, schedule: Q01DX009 (ip), vehicle: saline) is 4 of 6.
In the case of `C#CC(C)(C)N1CCCCC1`, the survivor count under setting [1] was 3 of 6.
Regarding `COC1OC(n2cnc3ncn(Cc4ccccc4)c3c2=N)C2OC(C)(C)OC12` (stereo unspecified), the survivor count under setting [11] is reported as 0 of 6.
For `NC(=S)N/N=C(\c1ccccc1)c1ccccn1`, the survivor count (T/C endpoint: mean survival time, dose: 100.0 mg/kg/injection, schedule: Q01DX001 (ip), vehicle: gum acacia) is 2 of 6; the survivor count (T/C endpoint: mean survival time, dose: 100.0 mg/kg/injection, schedule: Q04DX003 (ip), vehicle: gum acacia) was 3 of 6; the survivor count (T/C endpoint: mean survival time, dose: 200.0 mg/kg/injection, schedule: Q01DX001 (ip), vehicle: gum acacia) is recorded as 0 of 6; the survivor count (T/C endpoint: mean survival time, dose: 400.0 mg/kg/injection, schedule: Q01DX001 (ip), vehicle: gum acacia) is given as 0 of 6.
On to `c1cc[c]([GeH]([c]2ccccc2)[c]2ccccc2)cc1`, for which, under “T/C endpoint: mean survival time, dose: 25.6 mg/kg/injection, schedule: Q04DX002 (ip), vehicle: saline with Tween-80”, the survivor count is given as 3 of 3.
For `Cc1ccc(C(C)C)c(OCCN2CC=CC2)c1`, where the note is “T/C endpoint: mean survival time, dose: 400.0 mg/kg/injection, schedule: Q01DX001 (ip), vehicle: saline”, the survivor count is listed as 0 of 6.
As for `N=C(N)c1ccc(-c2cc(-c3ccc(C(=N)N)cc3)on2)cc1`, the survivor count by setting is: (T/C endpoint: mean survival time, dose: 100.0 mg/kg/injection, schedule: Q04DX003 (ip), vehicle: saline) 0 of 4; (T/C endpoint: mean survival time, dose: 200.0 mg/kg/injection, schedule: Q04DX003 (ip), vehicle: saline) 0 of 4; under setting [11], 0 of 4.
Take `CC1(C)N=C(N)N=C(N)N1c1ccc(CCc2ccccc2)cc1`: the survivor count reads like this: (T/C endpoint: mean survival time, dose: 50.0 mg/kg/injection, schedule: Q01DX009 (ip), vehicle: Klucel (hydroxypropylcellulose) (HPC)) 3 of 6; under setting [1], 5 of 6.
As for `O=c1nc(NC(=S)Nc2ccn(C3OC(CO)C(O)C3O)c(=O)n2)ccn1C1OC(CO)C(O)C1O` (stereo unspecified), the T/C was 138 % of control (T/C endpoint: mean survival time, dose: 100.0 mg/kg/injection, schedule: Q01DX001 (ip), vehicle: saline); 125 and 132 % of control (T/C endpoint: mean survival time, dose: 100.0 mg/kg/injection, schedule: Q01DX001 (ip), vehicle: water); 141 % of control (T/C endpoint: mean survival time, dose: 200.0 mg/kg/injection, schedule: Q01DX001 (ip), vehicle: water); 126 % of control under setting [12]; 148 % of control [9 of 10 alive] (T/C endpoint: mean survival time, dose: 400.0 mg/kg/injection, schedule: Q01DX001 (ip), vehicle: water, evaluated on day 30); 131 % of control (T/C endpoint: mean survival time, dose: 400.0 mg/kg/injection, schedule: Q01DX001 (ip), vehicle: water, evaluated on day 60). Moreover, the T/C by setting is: (T/C endpoint: median survival time, dose: 6.3 mg/kg/injection, schedule: Q03HX024 (ip), vehicle: saline) 133 % of control; (T/C endpoint: median survival time, dose: 100.0 mg/kg/injection, schedule: Q03HX024 (ip), vehicle: saline) 133 % of control [7 of 8 alive]; (T/C endpoint: median survival time, dose: 100.0 mg/kg/injection, schedule: Q04DX003 (ip), vehicle: saline) 147 % of control; (T/C endpoint: median survival time, dose: 200.0 mg/kg/injection, schedule: Q01DX001 (ip), vehicle: saline) 142 % of control; (T/C endpoint: median survival time, dose: 400.0 mg/kg/injection, schedule: Q01DX009 (ip), vehicle: saline) 133 % of control. Moreover, the survivor count (T/C endpoint: mean survival time, dose: 200.0 mg/kg/injection, schedule: Q01DX001 (ip), vehicle: other) was 1 of 6; the survivor count under setting [12] was 0 of 6; the survivor count (T/C endpoint: mean survival time, dose: 600.0 mg/kg/injection, schedule: Q01DX001 (ip), vehicle: other) is listed as 2 of 6; the survivor count (T/C endpoint: median survival time, dose: 800.0 mg/kg/injection, schedule: Q01DX009 (ip), vehicle: saline) is reported as 8 of 8; the survivor count (T/C endpoint: median survival time, dose: 1600.0 mg/kg/injection, schedule: Q01DX001 (oral), vehicle: saline) is given as 6 of 8.
